## Primary screen of a compound library

Data taken from ChEMBL document CHEMBL3988442, “University of Dundee, Small-Polar-MMV Screening Library” (2021).

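Whole-cell growth test on Mycobacterium tuberculosis, read after 3 days in glucose-containing 7H9 medium; the read-out is not stated. Tested at 500 µM. Direction is inferred from retests: higher values go with more growth inhibition. About 18,000 compounds were tested under these conditions; 7.9% (about 1,400) showed 50% or more at least once.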

Results are given as percent effect. How 0% and 100% were set is not recorded. Most values in the screen are low, and negative values occur. This is an unselected part of the compounds tested.

Compound	Percent Effect
CCC(NC(=O)C1CCOCC1)c1cc(C)ccn1 (configuration not stated)	2.565
CNC(=O)NC(=O)CCN1CCC(c2ccn[nH]2)CC1	-9.252
CC(=O)Nc1ccc(N2C(=O)C=CC2=O)cc1	83.61
COCCN1CC(NC(=O)c2ccc(N)nc2)CC1=O (configuration not stated)	18.63
O=C(CC1CSCCN1)NCCc1ccc(F)cc1F (configuration not stated)	26.47
Cc1nnc(SCC(N)=O)[nH]1	1.792
O=C(c1cccc(F)c1)N1CCN(c2nccs2)CC1	53.05
COCC(O)CNc1ncc(Br)cn1 (configuration not stated)	23.25
CC(C)c1ncc(C(=O)Nc2ccc(C(N)=O)nc2)s1	5.724
COCC(O)CNc1c(C)c(C)nc2ccccc12 (configuration not stated)	-41.23
COC(=O)c1ccc(C(=O)N=c2sccn2C)cc1	-14.88
NC1CCN(Cc2ccccc2F)CC1	17.44
CCC(C)C(=O)Nc1ccc2[nH]nc(C(=O)OC)c2c1 (configuration not stated)	-10.83
Cc1ccncc1NC(=O)Nc1cnccc1C	-3.507
COCCOC(=O)N1CCN2CCNC(=O)C2C1 (configuration not stated)	3.445
CC(N)c1cc(F)ccc1N(C)C (configuration not stated)	0.3842
CCOc1ccc(S(=O)(=O)NCCCO)cc1	11.68
CC(C(N)=O)N1CCC(=Cc2ccccc2)CC1 (configuration not stated)	68.33
N#CC1CCCN(C(=O)CCc2cccc(F)c2)C1 (configuration not stated)	44.77
Cn1ccc(C(=O)N2CCCC2c2ccc[nH]2)cc1=O (configuration not stated)	-18.26
Cc1nccc(C2(N)CC2)n1	2.82
N[C@H]1CN(C(=O)c2c(F)cccc2F)C[C@@H]1C1CC1	24.98
CCNCCNC(=O)Cc1ccc(F)cc1F	-0.6015
Cc1nnc(SCCN)s1	50.79
COc1cccc(CN)c1C	6.256
CC(=O)Nc1ccc2ncccc2c1	14.61
OCCc1cnn(-c2cccc(-n3cnnc3)c2)c1	34.94
NC(=O)OCC(N)Cc1ccccc1 (configuration not stated)	10.86
Cc1noc(CN2CCCCC2CCNS(C)(=O)=O)n1 (configuration not stated)	0.3802
CCCc1ccc(CN2Cc3cnn(CCO)c3C2)o1	26.67
Cc1nc2sccn2c1C(=O)NC1C=CS(=O)(=O)C1 (configuration not stated)	19.92
Cc1cnccc1NCCNC(=O)c1ccccc1Cl	17.24
CN1CCC(NC(=O)c2nn(C)cc2N)CC1	9.151
NC(=O)c1cccc(CSc2ccncc2)c1	17.65
O=C(NCCn1ccnc1)N1CCc2sccc2C1	27.16
CCN(CC)CCNC(=O)Nc1nnc2ccccn12	12.22
CC(=O)c1csc(C(=O)Nc2n[nH]c(C3CCC3)n2)c1	-4.626
Cc1ccc(NC(=O)Cn2ccnc2)cc1	62.25
CC(NC(=O)Cc1cccnc1)c1cn2ncsc2n1 (configuration not stated)	14.52
CC(C)[C@H]1CN(C(=O)c2cnc3c(c2)CCC3)C[C@@H]1N	21.41
CC(C)COCC1CCNCC1	6.711
CNC(=O)C(CC(C)C)NC(=O)c1ccc(Br)c(O)c1 (configuration not stated)	4.505
O=C(CCN1CCc2[nH]cnc2C1)NCc1cccs1	14.21
O=C1NCC(C(=O)N2CCCCCC2)N1 (configuration not stated)	7.85
CCc1nnsc1C(=O)N(C)Cc1cc(C)on1	-11.95
COCCCn1ccc(NC(=O)NC(C)(C)C)n1	13.94
CCc1nc2ccccc2n1CCN	15.53
O=S(=O)(CCc1ccccc1)NCCCO	11.65
Cc1nn(C)c(C)c1S(=O)(=O)N[C@@H]1C=C[C@H](CO)C1	6.221
CCCn1cc(CNC(=O)c2cnc(O)cn2)cn1	-2.308
CSc1ccc(C)c(C(=O)N2CCCC(C(N)=O)C2)c1 (configuration not stated)	20.37
CCCNC(=O)CNC(=O)c1ccc(O)nc1	-8.388
COc1ccc(Cc2[nH][nH]c(=O)c2CCN)cc1	60.4
CC(N)(CO)c1ccccc1 (configuration not stated)	-0.1777
O=C(NCCOc1ccc2c(c1)OCO2)C1CCCO1 (configuration not stated)	41.59
Cn1nnnc1SC(C(N)=O)c1ccc(Br)cc1 (configuration not stated)	39.73
CN1CCN(c2cccnc2)CC1	-1.978
CC(CO)Sc1ccc(S(=O)(=O)C(F)F)cc1 (configuration not stated)	56.44
CC1CN(c2cccc3cnccc23)CCN1 (configuration not stated)	45.46
CC(N)CCS(C)(=O)=O (configuration not stated)	6.547
O=C(Cc1cscn1)N1CCCC1c1ccco1 (configuration not stated)	-12.69
CC(C)CCNC(=O)Nc1ccc(S(C)(=O)=O)cc1	65.79
Cc1ccnc(NCc2cccc(S(N)(=O)=O)c2)c1	-30.02
COCCc1nncn1C1CCNCC1	6.007
COc1ccc(F)cc1C(=O)N1CCC(CN)CC1	26.21
CNC(=O)c1ccc(NC(=O)NCc2cccs2)cc1	49
COCCCNC(=O)CCc1nc(-c2ccsc2)no1	16.09
COc1cccc(C(=O)N2CCCNCC2)c1	3.875
Cc1cc(C2CCCNC2)[nH]n1 (configuration not stated)	-8.397
CC(Cc1cccs1)N(C)C(=O)CC1(N)CCC1 (configuration not stated)	13.73
Nc1nc(N2CCCC2)n[nH]1	6.554
NCCC1CNCCO1 (configuration not stated)	4.063
CN(C)[C@@H]1CN(C(=O)c2ccco2)C[C@H]1CO	2.057
CCC=C(C)C(=O)NC1CCN(CC(=O)NC)CC1	3.055
Cc1ccccc1C(=O)NCCC(=O)NC1CC1	-13.65
COC1CNc2ccccc2C1 (configuration not stated)	14.82
CC(NC(=O)c1ccccc1Cl)C(=O)NC1CC1 (configuration not stated)	-3.715
N#CCSCC(=O)NCc1ccc(Cl)s1	34.41
COc1ccc(C(O)CNC(=O)Nc2nncs2)cc1 (configuration not stated)	79.52
OC1CCN(Cc2ccccc2)C2(CC2)C1 (configuration not stated)	14.15
CCS(=O)(=O)CCC(=O)Nc1cccc(F)c1	16.18
N#Cc1ccc(OCCN)cc1	11.95
Cc1nnc(NCc2ccc3nonc3c2)o1	22.4
CC1(C)CC(NC(=O)c2ccc(O)cc2F)CCO1 (configuration not stated)	32.3
CCCC1COCCN1Cc1cc(C)n[nH]1 (configuration not stated)	4.181
CN(C)CCO[C@H]1CCOC[C@H]1NC(=O)c1cn[nH]c1	3.971

Some entries from above, unchanged:

- CN(C)[C@@H]1CN(C(=O)c2ccco2)C[C@H]1CO | 2.057%
- CCN(CC)CCNC(=O)Nc1nnc2ccccn12 | 12.22%
- CSc1ccc(C)c(C(=O)N2CCCC(C(N)=O)C2)c1 (configuration not stated) | 20.37%
- CCCn1cc(CNC(=O)c2cnc(O)cn2)cn1 | -2.308%
- COc1ccc(C(O)CNC(=O)Nc2nncs2)cc1 (configuration not stated) | 79.52%